# Measurements reported in PubChem BioAssay AID652272 (Drosophila RNAi Screening Center, 2013)
# Purpose: 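Genes whose knock-down decreases or increases Hedgehog reporter output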 (primary screen)
# Cell system: Drosophila clone 8 (Cl8) cells
# Reagent: long dsRNA against Drosophila genes
# Measured: 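Plate reader light from a firefly reporter under a ptc promoter fragment that responds to Hedgehog, with Renilla light as transfection reference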
# Scale: firefly Hh reporter signal: higher = more ptc reporter light; Renilla reference signal: higher = more Renilla control light
# Call rule: 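Hit when the z-score averaged over two replicates is under -2 or over +3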
# Calls: active = hit: reporter lowered or raised; inactive = not a hit
# In all, the deposit lists about 21,000 reagents; below is an unselected part of those with a known target gene and a result. Over the whole deposit, 503 (2.4%) are marked active. 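Raw plate light values, not normalised; calls rest on replicate z-scores that were not deposited; hits include reporter decreases as well as increases.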 Not stated in the record: the amount of reagent, the time to read-out.
Gene,DRSC id,"firefly Hh reporter signal, replicate 1","firefly Hh reporter signal, replicate 2","Renilla reference signal, replicate 1","Renilla reference signal, replicate 2",Call
CG14300,DRSC14779,7.10e5,1.32e5,37916,3497,inactive
Cyp28d1,DRSC03298,1.48e5,1.15e5,6240,4476,inactive
Tsp42Ee,DRSC05947,75755,45973,1776,3883,inactive
CG3081,DRSC18571,62808,1.35e5,2245,5236,inactive
Obp56g,DRSC06432,90242,42244,2336,2960,inactive
beat-Vb,DRSC12940,62491,2.67e5,11722,5565,inactive
beat-Vb,DRSC14844,4.46e5,81088,3862,3862,inactive
beat-Vb,DRSC14845,1.20e5,89050,4187,2329,inactive
rictor,DRSC20071,71552,2.18e5,2342,8935,inactive
CG32576,DRSC19136,5.03e5,2.78e5,30256,6162,inactive
TwdlT,DRSC16677,1.35e5,1.21e5,4120,3505,inactive
MBD-like,DRSC16996,58973,81922,2331,2354,inactive
Pcp,DRSC03395,1.64e5,83929,4632,7831,inactive
RpL36,DRSC18708,20856,47337,1683,4379,active
CG14566,DRSC11727,1.45e5,1.48e5,5132,19510,inactive
CG14893,DRSC15015,94241,1.63e5,2793,4668,inactive
alpha-Est7,DRSC12619,5.42e5,67780,2933,2933,inactive
ppk9,DRSC04134,1.00e5,57461,2807,5472,inactive
ppk9,DRSC04135,90885,52706,2564,4842,inactive
Uba3,DRSC06377,71591,75734,3760,3155,inactive
CG11562,DRSC00316,1.10e5,90544,2856,2178,inactive
CG14621,DRSC20635,52857,1.55e5,1301,6491,inactive
Vml,DRSC17695,4.49e5,1.53e5,22896,3096,inactive
Vml,DRSC18529,1.15e5,2.25e5,1718,9609,inactive

Copied from the list.
For “firefly Hh reporter signal, replicate 2”, beat-Vb [DRSC14845] has 89050
For “Call”, ppk9 [DRSC04135] shows inactive
Result for Obp56g [DRSC06432] in “Call”: inactive
